Data published in the supplement of paper PMC10849652.
Some of the results follow.

Amino acid sequences for entries named in this document (tags omitted). A change or cut given only in a name is not applied to a line headed by its entry.
UniProt Q13685: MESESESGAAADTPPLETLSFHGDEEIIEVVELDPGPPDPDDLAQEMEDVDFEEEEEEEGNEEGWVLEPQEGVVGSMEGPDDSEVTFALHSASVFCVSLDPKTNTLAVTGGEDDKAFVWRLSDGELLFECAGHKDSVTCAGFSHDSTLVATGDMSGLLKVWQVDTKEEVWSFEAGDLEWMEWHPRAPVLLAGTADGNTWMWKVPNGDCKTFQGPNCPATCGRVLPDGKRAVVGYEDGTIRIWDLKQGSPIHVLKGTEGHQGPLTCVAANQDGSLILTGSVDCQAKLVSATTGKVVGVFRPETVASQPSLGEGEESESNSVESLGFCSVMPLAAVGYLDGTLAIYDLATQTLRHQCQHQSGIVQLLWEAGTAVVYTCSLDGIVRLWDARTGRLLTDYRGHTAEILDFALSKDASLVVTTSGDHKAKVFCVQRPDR
UniProt Q9H3P7: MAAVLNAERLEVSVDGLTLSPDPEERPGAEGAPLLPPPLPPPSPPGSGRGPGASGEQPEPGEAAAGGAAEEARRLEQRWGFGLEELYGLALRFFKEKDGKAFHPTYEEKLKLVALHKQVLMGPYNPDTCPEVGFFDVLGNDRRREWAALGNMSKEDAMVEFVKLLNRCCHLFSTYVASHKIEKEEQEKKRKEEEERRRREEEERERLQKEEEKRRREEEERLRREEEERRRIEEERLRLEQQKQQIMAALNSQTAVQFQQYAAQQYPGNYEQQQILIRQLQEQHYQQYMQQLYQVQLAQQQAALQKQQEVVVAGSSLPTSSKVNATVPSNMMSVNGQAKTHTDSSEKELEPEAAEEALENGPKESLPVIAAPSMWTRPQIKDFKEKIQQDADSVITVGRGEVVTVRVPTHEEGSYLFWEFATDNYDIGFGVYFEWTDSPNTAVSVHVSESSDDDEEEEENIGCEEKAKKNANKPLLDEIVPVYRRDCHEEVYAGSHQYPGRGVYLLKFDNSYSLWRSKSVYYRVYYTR
UniProt Q99758: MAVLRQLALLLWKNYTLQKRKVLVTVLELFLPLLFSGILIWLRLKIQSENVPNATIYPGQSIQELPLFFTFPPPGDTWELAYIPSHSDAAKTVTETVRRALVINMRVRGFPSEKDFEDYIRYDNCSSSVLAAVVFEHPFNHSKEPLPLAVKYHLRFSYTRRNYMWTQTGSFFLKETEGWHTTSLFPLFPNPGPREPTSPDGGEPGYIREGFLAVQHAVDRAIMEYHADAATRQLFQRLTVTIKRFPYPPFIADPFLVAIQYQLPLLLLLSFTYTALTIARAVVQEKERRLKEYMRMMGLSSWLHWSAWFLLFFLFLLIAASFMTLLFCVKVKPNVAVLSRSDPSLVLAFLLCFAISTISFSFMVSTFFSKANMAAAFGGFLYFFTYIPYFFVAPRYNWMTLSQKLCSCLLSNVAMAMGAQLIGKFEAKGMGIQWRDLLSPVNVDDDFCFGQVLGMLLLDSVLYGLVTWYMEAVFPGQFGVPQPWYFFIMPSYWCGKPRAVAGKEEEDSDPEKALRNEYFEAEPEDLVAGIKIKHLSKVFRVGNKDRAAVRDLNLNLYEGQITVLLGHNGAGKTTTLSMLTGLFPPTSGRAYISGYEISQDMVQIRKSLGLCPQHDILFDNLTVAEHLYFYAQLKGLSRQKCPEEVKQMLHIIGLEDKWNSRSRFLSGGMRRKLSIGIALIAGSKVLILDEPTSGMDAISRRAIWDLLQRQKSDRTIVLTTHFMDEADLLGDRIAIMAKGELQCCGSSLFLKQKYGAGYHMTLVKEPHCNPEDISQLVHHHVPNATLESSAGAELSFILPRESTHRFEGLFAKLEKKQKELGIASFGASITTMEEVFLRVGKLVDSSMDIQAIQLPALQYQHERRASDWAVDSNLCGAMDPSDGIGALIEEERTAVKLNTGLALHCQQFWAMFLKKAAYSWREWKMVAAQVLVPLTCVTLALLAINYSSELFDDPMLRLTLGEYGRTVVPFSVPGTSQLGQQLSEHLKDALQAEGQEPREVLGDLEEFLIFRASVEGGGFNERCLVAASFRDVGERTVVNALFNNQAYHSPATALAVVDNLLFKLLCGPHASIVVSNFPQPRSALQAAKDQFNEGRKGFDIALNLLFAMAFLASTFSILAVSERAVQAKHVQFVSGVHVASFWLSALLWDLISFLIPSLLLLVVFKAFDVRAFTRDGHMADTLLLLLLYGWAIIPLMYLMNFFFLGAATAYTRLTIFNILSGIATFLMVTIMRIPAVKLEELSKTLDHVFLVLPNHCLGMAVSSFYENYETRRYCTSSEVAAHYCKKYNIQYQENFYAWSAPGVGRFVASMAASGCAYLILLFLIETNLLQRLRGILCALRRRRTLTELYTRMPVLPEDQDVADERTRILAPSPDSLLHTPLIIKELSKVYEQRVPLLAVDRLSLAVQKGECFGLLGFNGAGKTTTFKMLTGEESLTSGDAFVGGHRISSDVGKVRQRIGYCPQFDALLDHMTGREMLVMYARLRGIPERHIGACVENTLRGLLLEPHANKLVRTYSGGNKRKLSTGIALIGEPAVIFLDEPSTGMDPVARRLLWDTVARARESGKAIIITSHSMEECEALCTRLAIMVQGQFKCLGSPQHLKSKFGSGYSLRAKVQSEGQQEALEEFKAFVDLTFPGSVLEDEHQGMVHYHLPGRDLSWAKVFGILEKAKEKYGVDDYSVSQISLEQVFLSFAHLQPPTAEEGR
UniProt Q96QU6: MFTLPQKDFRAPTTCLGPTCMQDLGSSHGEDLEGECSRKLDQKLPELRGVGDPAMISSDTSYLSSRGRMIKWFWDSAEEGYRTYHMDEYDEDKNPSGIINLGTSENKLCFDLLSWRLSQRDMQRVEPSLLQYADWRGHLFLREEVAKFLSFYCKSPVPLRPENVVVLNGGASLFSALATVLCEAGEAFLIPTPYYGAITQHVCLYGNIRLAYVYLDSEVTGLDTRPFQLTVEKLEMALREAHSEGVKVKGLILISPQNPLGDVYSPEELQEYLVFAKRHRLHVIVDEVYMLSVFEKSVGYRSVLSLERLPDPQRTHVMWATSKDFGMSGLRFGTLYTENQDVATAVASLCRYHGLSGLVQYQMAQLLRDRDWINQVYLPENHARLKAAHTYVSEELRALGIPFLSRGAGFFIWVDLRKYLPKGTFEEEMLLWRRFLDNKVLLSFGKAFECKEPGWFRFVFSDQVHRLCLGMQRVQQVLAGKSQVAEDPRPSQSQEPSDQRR
UniProt Q15057: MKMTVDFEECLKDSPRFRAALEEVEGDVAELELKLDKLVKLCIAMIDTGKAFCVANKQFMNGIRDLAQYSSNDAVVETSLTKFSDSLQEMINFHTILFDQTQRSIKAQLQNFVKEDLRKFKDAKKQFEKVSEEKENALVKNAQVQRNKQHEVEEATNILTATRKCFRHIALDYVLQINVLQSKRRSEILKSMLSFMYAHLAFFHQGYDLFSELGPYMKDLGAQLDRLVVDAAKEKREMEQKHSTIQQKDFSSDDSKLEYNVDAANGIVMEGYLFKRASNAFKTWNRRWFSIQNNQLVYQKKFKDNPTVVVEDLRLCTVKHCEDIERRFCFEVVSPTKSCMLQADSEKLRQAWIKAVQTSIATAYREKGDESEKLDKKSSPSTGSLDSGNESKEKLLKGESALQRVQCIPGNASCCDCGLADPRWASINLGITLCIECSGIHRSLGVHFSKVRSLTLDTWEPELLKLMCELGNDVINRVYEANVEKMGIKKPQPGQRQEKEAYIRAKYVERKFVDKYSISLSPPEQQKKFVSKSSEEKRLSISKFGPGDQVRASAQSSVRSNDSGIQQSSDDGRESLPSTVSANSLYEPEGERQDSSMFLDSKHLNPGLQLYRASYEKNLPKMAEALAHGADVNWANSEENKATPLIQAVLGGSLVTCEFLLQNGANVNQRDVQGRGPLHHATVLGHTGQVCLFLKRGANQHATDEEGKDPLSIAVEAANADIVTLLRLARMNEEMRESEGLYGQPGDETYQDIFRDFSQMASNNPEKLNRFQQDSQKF
UniProt Q9BTE6: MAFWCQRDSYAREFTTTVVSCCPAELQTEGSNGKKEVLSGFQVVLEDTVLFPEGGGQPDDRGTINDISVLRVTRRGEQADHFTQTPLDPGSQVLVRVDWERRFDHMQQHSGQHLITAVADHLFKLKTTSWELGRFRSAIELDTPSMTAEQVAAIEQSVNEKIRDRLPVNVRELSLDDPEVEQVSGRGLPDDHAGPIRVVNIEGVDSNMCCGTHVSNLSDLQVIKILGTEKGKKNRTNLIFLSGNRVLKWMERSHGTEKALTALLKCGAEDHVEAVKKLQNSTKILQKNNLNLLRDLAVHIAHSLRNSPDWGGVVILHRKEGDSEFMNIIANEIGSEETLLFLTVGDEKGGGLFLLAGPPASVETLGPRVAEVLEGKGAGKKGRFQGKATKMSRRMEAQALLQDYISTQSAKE
UniProt Q9UKU7: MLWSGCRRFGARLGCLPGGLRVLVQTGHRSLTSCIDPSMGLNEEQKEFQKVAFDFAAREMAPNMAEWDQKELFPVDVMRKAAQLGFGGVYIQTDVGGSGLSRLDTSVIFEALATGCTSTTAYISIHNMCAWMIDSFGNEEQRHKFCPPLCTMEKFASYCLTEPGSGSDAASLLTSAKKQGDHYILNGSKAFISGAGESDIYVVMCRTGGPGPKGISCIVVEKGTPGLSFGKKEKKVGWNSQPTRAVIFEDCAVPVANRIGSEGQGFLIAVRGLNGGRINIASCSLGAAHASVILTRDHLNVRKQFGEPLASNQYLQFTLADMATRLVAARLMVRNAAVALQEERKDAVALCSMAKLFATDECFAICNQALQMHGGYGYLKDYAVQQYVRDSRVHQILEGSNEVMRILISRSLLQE

How the values were obtained:
Assay in all cases: log2 fold change, soluble protein after heating vs DMSO (PISA); higher = thermal stabilisation; K562 lysate, 10 uM; active = over 0.2 and 3.5 SD of the protein, either way, in both replicates (recomputed)
[1] = compound: C1=CC=C(C=C1)[C@H](COC2=CC3=C(C=C2)NC(=O)N3)NC(=O)C4=CC=CN(C4=O)CC5=CC(=C(C=C5)F)F
Method in brief: (§1)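 Thermal stability, expressed as log-two fold change relative to solvent controls, is given from duplicates. Crude K562 extract in PBS pH 7.4 with 1 mM MgCl2, at 1 mg/mL protein, was treated with 10 μM compound for 30 min and heated in aliquots for 3 min across 48°C-58°C. After pooling, adjustment to 0.5% NP-40 at 4°C and centrifugation at 21,000xg for 90 min, supernatant protein was measured by TMTpro 16plex LC-MS/MS with channel sums equalised.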

[2] = compound: CC1=C(SC2=C1C(=N[C@H](C3=NN=C(N32)C)CC(=O)N)C4=CC=C(C=C4)Cl)C
Method in brief: as §1

[3] = compound: CC1=C2C(=CC=C1)N=C(N(C2=O)C3=CC=CC=C3C)CN4C=NC5=C(N=CN=C54)N
Method in brief: as §1

[4] = compound: Cc1sc2c(c1C)C(c1ccc(Cl)cc1)=N[C@@H](CC(=O)OC(C)(C)C)c1nnc(C)n1-2
Method in brief: as §1

[5] = compound: c1ccc([C@@H]2C[C@H]2NC2CCNCC2)cc1
Method in brief: as §1

Measured: log2 fold change

AAMP (UniProt Q13685)
inactive: [1] -0.025 | [2] 0.01 | [3] 0.028 | [4] 0.021 | [5] 0.022

ACBD3 (UniProt Q9H3P7)
inactive: [1] -0.022 | [2] -0.013 | [3] 0.007 | [4] 0.006 | [5] 0.048

ABCA3 (UniProt Q99758)
inactive: [1] 0.112 | [2] 0.038 | [3] 0.006 | [4] -0.01 | [5] -0.005

A0A494C100, A0A494C100
inactive: [1] -0.08 | [2] 0.061 | [3] 0.013 | [4] 0.076 | [5] 0.233

ACCS (UniProt Q96QU6)
inactive: [1] -0.043 | [2] 0.059 | [3] 0.171 | [4] -0.06 | [5] -0.089

2 successive records out of the list so far, quoted:
A0A494C100, A0A494C100
inactive: [1] -0.08 | [2] 0.061 | [3] 0.013 | [4] 0.076 | [5] 0.233

ACCS (UniProt Q96QU6)
inactive: [1] -0.043 | [2] 0.059 | [3] 0.171 | [4] -0.06 | [5] -0.089

Further entries

ACAP2 (UniProt Q15057)
inactive: [1] 0.007 | [2] 0.011 | [3] 0.021 | [4] 0 | [5] 0.026

AARSD1 isoform 3 (UniProt Q9BTE6)
inactive: [1] 0.035 | [2] 0.03 | [3] 0.03 | [4] -0.002 | [5] 0.063

AAK1, A0A096LP25
inactive: [1] -0.033 | [2] -0.075 | [3] -0.036 | [4] -0.043 | [5] -0.067

ACAD8 (UniProt Q9UKU7)
inactive: [1] 0.191 | [2] 0.323 | [3] 0.116 | [4] 0.012 | [5] -0.016
